The values below come from article PMC3585330.

Chains of the proteins cited; added tags and fusions are not shown. Lines headed by an entry give the natural chain unless they say otherwise; changes in a name come on top. A line that says so, or that is headed by a name, gives the form on record, which may keep a tag or linker.
Cysteine (C)-X-C Receptor 4 (CXCR4) (human (endogenous in PC3)) (P61073, form named): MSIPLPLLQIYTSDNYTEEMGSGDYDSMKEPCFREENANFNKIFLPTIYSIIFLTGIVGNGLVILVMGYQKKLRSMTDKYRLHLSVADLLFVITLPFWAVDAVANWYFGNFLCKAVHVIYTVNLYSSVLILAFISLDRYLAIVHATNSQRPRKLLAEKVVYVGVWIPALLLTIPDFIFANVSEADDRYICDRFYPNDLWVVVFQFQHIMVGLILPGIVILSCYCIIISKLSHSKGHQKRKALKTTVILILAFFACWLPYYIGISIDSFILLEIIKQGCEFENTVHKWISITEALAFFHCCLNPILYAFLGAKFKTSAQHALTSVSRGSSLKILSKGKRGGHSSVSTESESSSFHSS
UniProt Q92973: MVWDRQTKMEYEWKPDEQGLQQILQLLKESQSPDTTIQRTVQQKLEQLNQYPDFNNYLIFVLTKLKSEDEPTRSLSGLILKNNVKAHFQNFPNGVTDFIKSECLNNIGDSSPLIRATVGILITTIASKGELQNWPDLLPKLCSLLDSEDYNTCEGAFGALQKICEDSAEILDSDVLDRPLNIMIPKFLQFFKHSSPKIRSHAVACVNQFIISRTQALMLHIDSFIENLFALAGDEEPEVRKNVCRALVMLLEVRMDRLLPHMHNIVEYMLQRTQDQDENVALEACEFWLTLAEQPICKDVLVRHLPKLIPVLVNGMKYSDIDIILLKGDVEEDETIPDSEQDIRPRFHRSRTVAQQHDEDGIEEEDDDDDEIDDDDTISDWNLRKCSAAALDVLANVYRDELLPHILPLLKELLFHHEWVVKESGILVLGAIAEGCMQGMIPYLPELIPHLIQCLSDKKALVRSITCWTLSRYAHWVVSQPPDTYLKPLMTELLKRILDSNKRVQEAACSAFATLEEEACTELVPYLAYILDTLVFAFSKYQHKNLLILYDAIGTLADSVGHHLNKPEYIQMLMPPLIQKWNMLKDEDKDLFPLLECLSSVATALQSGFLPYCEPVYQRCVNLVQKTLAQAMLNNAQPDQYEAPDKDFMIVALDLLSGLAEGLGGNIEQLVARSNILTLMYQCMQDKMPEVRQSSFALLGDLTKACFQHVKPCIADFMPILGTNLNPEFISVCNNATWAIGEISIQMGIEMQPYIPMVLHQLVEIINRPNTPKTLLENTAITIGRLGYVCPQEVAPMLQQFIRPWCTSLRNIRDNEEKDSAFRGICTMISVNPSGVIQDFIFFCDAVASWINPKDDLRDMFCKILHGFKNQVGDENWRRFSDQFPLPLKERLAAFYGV

The target in the assay is Cysteine (C)-X-C Receptor 4 (CXCR4) (human (endogenous in PC3)) (UniProt P61073). Nature of the assay: co-IP; 1 mg PC3 whole cell lysate immunoprecipitated for CXCR4 (Santa Cruz antibody) overnight at 4°C, Protein A/G Plus-Agarose beads 2 hrs at 4°C, 3 washes with PBS; western blot for TRN1. For orientation: Immunoblotting shows a protein as a band on a membrane.

No constants are given. Whether binding was seen depends on the method and setting. In cells and extracts the contact can be indirect. Some results given as binding are weak or reduced against the parent protein; the word gives no strength.

In the case of “Transportinβ1 (TRN1) (from UniProt Q92973 1-898)”, the binding result is given as “binds”.
